Measured values reported in paper PMC7672458.
No constants are given. Whether binding was seen depends on the method and setting. In cells and extracts the contact can be indirect. Some entries that bind do so weakly or less than the wild type. Blank lines part the entries; values can stand above or below the molecule they belong to.

By UniProt entry, the sequences of proteins in these tests, tags left out.
UniProt P12270: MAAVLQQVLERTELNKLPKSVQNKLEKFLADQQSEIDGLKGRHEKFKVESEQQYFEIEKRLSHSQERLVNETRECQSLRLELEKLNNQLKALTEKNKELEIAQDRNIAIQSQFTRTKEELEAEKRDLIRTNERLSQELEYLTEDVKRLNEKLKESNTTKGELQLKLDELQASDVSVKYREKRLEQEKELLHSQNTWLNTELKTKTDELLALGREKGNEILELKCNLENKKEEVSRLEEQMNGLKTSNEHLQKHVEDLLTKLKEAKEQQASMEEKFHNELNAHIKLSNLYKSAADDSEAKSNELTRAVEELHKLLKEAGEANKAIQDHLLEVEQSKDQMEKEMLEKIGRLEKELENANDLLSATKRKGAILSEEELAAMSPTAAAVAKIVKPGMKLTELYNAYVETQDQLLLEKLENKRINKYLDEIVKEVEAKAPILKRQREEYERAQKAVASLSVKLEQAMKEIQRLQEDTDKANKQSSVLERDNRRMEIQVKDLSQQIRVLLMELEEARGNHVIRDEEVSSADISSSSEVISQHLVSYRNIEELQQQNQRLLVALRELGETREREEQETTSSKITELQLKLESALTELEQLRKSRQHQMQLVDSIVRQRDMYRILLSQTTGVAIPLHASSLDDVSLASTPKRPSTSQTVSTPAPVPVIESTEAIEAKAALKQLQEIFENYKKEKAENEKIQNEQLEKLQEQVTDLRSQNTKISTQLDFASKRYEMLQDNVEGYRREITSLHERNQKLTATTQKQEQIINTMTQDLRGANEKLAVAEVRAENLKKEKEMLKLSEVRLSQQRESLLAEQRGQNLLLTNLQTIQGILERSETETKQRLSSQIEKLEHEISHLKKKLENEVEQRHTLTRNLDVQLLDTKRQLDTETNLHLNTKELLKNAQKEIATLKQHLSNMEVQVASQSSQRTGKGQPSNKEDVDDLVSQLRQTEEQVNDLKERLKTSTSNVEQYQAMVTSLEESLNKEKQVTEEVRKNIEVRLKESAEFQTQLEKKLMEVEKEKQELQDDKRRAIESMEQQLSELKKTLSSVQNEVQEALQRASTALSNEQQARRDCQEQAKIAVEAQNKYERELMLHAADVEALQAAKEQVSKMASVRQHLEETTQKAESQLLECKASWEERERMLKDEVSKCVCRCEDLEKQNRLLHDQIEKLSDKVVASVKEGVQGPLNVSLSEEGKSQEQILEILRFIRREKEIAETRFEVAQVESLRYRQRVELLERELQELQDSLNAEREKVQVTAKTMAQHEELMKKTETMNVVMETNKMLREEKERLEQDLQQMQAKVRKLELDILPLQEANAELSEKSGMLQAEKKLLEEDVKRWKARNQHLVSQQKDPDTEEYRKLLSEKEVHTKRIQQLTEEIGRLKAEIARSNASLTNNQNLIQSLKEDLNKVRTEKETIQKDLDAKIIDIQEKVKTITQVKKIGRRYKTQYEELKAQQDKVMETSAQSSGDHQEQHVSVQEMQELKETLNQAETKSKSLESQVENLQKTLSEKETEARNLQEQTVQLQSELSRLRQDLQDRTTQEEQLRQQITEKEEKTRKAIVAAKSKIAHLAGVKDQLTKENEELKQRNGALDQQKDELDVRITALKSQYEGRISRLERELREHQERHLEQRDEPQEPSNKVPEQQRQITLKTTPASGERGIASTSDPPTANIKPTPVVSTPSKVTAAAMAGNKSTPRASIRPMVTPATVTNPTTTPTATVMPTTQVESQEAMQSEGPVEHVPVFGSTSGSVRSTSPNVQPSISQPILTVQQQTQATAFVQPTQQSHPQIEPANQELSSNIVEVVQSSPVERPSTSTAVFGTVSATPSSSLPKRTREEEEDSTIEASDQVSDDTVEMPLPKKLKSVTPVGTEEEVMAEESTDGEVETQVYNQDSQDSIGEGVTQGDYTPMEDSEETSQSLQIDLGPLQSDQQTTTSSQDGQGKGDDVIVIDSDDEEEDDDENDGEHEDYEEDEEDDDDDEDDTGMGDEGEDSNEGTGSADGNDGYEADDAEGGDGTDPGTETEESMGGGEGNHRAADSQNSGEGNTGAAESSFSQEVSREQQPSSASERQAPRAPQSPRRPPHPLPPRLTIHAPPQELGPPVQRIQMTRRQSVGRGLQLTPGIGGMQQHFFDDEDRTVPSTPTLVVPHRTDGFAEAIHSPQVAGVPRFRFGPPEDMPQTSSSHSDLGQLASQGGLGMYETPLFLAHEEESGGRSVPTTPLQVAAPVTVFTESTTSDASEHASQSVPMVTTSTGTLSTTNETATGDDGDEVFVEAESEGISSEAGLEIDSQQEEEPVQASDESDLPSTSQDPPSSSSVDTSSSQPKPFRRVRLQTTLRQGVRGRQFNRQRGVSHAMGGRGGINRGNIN
UniProt Q13838: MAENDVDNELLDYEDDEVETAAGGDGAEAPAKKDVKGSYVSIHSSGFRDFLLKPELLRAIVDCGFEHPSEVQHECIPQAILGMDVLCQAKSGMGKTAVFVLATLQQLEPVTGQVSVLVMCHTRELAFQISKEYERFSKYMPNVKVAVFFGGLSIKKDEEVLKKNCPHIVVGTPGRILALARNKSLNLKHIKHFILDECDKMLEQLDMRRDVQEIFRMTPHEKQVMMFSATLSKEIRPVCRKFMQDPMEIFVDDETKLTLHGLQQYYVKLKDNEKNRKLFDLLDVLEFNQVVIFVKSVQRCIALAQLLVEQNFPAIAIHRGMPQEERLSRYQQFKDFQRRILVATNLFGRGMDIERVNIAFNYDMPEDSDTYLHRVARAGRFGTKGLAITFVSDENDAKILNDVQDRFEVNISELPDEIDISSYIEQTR

How the values were obtained:
[1] = biological target: FLAG-TPR (human) (UniProt P12270); test: co-IP; Flp-In FLAG-TPR U2OS cells treated with doxycycline for 4 h, lysed and immunoprecipitated with anti-FLAG M2 beads (protein A beads as control); input, immunoprecipitates and unbound fraction separated by SDS-PAGE and immunoblotted
[2] = biological target: FLAG-TPR (human), P12270; test: as above; settings: remark: other sources report otherwise

- binding [1]: binds
Molecule: UAP56 (from UniProt Q13838 1-428)

- binding [2]: binds
B1: Nxf1, Q9UBU9 1-619 (protein)
chain: MADEGKSYSEHDDERVNFPQRKKKGRGPFRWKYGEGNRRSGRGGSGIRSSRLEEDDGDVAMSDAQDGPRVRYNPYTTRPNRRGDTWHDRDRIHVTVRRDRAPPERGGAGTSQDGTSKNWFKITIPYGRKYDKAWLLSMIQSKCSVPFTPIEFHYENTRAQFFVEDASTASALKAVNYKILDRENRRISIIINSSAPPHTILNELKPEQVEQLKLIMSKRYDGSQQALDLKGLRSDPDLVAQNIDVVLNRRSCMAATLRIIEENIPELLSLNLSNNRLYRLDDMSSIVQKAPNLKILNLSGNELKSERELDKIKGLKLEELWLDGNSLCDTFRDQSTYISAIRERFPKLLRLDGHELPPPIAFDVEAPTTLPPCKGSYFGTENLKSLVLHFLQQYYAIYDSGDRQGLLDAYHDGACCSLSIPFIPQNPARSSLAEYFKDSRNVKKLKDPTLRFRLLKHTRLNVVAFLNELPKTQHDVNSFVVDISAQTSTLLCFSVNGVFKEVDGKSRDSLRAFTRTFIAVPASNSGLCIVNDELFVRNASSEEIQRAFAMPAPTPSSSPVPTLSPEQQEMLQAFSTQSGMNLEWSQKCLQDNNWDYTRSAQAFTHLKAKGEIPEVAFMK
